Measurements reported in paper doi:10.1101/2020.07.12.199372.

Sequences of proteins named here, by UniProt entry; tags and fusion partners are left off.
UniProt Q9UL03: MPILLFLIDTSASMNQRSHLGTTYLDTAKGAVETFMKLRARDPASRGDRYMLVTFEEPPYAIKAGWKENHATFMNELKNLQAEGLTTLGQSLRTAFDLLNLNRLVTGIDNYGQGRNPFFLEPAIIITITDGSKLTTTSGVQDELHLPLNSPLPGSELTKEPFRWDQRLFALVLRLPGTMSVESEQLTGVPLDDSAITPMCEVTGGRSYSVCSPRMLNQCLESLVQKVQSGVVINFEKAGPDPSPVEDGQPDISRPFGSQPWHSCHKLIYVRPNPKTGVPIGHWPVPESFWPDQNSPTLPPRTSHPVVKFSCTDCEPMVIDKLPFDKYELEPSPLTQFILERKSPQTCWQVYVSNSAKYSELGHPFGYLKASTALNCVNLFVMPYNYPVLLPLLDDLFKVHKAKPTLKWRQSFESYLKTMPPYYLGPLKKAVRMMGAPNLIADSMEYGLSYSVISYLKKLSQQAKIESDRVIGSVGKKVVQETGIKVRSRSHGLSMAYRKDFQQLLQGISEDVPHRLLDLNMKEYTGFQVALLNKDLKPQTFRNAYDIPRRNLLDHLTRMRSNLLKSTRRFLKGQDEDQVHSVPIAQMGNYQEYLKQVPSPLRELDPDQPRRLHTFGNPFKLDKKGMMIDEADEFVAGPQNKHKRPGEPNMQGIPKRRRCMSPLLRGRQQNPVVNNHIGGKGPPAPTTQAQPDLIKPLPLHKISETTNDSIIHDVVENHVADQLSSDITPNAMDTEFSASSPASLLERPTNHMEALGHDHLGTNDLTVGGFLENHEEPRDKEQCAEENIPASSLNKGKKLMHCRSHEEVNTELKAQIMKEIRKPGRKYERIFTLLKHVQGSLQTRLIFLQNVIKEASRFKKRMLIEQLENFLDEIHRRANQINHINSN
UniProt P36873: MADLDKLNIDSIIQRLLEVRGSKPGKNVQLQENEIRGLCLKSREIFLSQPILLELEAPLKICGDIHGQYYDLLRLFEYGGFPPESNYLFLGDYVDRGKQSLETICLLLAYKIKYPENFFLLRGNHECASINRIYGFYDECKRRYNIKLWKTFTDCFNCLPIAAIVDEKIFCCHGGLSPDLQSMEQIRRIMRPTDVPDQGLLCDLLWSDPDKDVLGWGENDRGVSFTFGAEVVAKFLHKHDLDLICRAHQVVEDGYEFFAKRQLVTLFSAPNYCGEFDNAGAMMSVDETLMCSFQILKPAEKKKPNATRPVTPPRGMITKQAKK
UniProt P67775: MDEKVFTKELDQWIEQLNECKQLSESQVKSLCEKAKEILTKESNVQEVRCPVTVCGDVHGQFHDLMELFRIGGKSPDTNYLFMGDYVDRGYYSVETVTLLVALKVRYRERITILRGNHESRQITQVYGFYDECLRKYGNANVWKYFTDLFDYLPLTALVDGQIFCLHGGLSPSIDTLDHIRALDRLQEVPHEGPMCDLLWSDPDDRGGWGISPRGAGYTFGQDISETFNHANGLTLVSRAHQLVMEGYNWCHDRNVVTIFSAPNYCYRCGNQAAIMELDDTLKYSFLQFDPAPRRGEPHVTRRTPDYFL
UniProt P30153: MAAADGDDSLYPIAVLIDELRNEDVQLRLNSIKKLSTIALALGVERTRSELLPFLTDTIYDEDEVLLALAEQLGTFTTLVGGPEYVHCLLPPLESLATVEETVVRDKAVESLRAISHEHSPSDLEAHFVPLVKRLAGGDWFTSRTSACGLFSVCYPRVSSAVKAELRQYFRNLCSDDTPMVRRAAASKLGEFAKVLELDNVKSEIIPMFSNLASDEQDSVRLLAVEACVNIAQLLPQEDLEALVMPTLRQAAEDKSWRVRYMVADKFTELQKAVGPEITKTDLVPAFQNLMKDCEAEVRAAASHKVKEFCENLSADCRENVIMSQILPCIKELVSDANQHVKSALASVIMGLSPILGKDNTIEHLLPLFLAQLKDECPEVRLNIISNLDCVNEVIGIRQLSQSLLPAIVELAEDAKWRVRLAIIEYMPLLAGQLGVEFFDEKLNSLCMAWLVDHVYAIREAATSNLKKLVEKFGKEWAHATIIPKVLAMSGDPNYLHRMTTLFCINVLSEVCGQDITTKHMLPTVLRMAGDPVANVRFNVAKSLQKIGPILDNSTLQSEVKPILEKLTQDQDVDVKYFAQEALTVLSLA
UniProt P30154: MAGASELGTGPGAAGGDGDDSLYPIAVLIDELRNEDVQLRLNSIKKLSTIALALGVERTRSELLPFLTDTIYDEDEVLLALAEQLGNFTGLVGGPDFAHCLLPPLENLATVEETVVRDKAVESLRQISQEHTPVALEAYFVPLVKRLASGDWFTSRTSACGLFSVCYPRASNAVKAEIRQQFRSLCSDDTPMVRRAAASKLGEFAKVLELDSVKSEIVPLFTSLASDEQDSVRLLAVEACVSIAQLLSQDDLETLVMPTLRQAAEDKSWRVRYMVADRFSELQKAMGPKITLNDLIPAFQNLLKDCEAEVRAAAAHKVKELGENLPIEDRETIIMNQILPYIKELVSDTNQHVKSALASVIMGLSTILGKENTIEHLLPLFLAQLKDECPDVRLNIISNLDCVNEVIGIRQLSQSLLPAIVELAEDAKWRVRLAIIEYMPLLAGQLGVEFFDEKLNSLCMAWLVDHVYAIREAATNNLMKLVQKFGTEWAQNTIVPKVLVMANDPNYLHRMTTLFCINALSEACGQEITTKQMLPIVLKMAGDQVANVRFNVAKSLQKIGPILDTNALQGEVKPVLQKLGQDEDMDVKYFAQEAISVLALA

Key:
[1] = molecular target: Integrator complex subunit INTS6 (human (endogenous in THP-1, MV4;11 and HeLa)) (UniProt Q9UL03); test: affinity purification with mass spectrometry
[2] = molecular target: Integrator complex subunit INTS6 (human (endogenous in THP-1, MV4;11 and HeLa)) (UniProt Q9UL03); test: affinity purification with mass spectrometry; remark: listed apart in the source

binding [1]	binding [2]	Substance
binds	–	PPP1CC subunit of PP1 (from UniProt P36873 1-323) (enzyme)
binds	binds	PPP2CA catalytic subunit (PP2A-C) of the PP2A phosphatase complex (from UniProt P67775 1-309) (enzyme)
binds	binds	PPP2R1A structural subunit of the PP2A phosphatase complex (from UniProt P30153 1-589)
binds	–	PPP2R1B structural subunit of the PP2A phosphatase complex (from UniProt P30154 1-601)

Where two headings read alike, the source gives them in different places. These are yes or no findings as the source states them, for the method shown. Binding seen in cells or lysates may run through a third protein. These calls come from enrichment with a bait or labelling near it, and not all partners need be listed.
